Values joined by “and” are separate entries in the source; they are usually repeats but may differ in a detail not shown here. Equal entries are not always repeated. The list shows a part of the results. These are further read-outs of the screen, such as a control signal, another cell line or another target. No call is given for them. The list favours compounds with an active or inconclusive main result. The note in brackets gives the kind of curve behind each potency; many fits are weak.
Assay: qHTS Assay to Find Inhibitors of Chronic Active B-Cell Receptor Signaling
Conditions: ABC-DLBCL IkBa-CBG/CBR reporter, luminescence ratio (green luciferase fused to IkBa over red control in TMD8 lymphoma cells), 4 h
In short: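 Concentration-response series (up to 46 uM) were applied to TMD8 dual-reporter cells for 4 h at 37C with doxycycline. Green/red ratio, after filter-overlap correction, defined %Activity; red signal alone was normalised to basal cells and zero luminescence.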

[1] = measured here: CBR red luminescence, cell number
[2] = measured here: IkBa-CBG green luminescence

Compound	AC50 [1]	AC50 [2]
Cc1ccccc1-c1nc2c3ccccc3nc(=S)n2[nH]1	6.31 µM [rising, partial curve, poor fit]	0.708 µM [falling, full curve]
CCCCC(=O)Nc1ccc(C(=O)Nc2ccc(S(=O)(=O)N3CCCC3)cc2)cc1	29.1 µM [falling, single point]	–
O=C(N/N=C/CCc1ccccc1)c1ccc(CN2c3cccc4cccc(c34)S2(=O)=O)cc1	14.6 µM [rising, partial curve, poor fit]	–
O=C(Nc1cccc(Cl)c1)c1cc([N+](=O)[O-])ccc1N1CCN(CCO)CC1	12.6 µM [falling, partial curve, poor fit]	–
O=C(Nc1ccc([N+](=O)[O-])cc1)c1cc2ccccc2nc1Cl	0.562 µM [rising, full curve, poor fit]	–
O=C(COc1ccc(Br)cc1)Nc1ccc(CN2CCOCC2)cc1	1 µM [falling, full curve, poor fit]	–
COC(=O)C1=C(C)N(Cc2ccccc2)C(=NCc2cccc(C(F)(F)F)c2)N[C@H]1c1cccc(F)c1	35.5 µM [falling, single point] and 14.1 µM [falling, partial curve, poor fit]	–
Cn1cc(CN2CC3C[C@@H]4CC2C[C@H](C3)C4)c(-c2ccc3c(c2)OCCO3)n1	1 µM [rising, partial curve, poor fit]	–
COc1ccccc1CNC(=O)c1ccc(NS(=O)(=O)c2cccs2)cc1	22.4 µM [falling, partial curve, poor fit]	–
Cc1ccccc1C(=O)N=c1c(C#N)cc2c(=O)n3cccc(C)c3nc2n1Cc1ccco1	4.61 µM [falling, single point]	–
CCN(CC)c1ccc2c(cc1=O)[C@@H](NC)CCc1cc(OC)c(OC)c(OC)c1-2	1.78 µM [rising, full curve, poor fit]	5.01 µM [falling, partial curve]
COC(=O)[C@@]1(Cc2ccccc2)[C@H]2C(=O)N(C)C(=O)[C@H]2[C@H]2CN=C(SCc3ccc(C)cc3)N21	1.16 µM [rising, full curve, poor fit]	–
COc1ccccc1Oc1ccc(S(=O)(=O)N2CCOCC2)cc1S(=O)(=O)N1CCOCC1	3.66 µM [falling, partial curve, poor fit]	–
Cc1nc(-c2ccc(NC(=O)c3ccccc3C)cc2)cs1	11.2 µM [falling, partial curve]	–
CCOC(=O)c1sc2nc(C)[nH]c(=O)c2c1C	35.5 µM [falling, single point]	–
COC(=O)c1c(C)[nH]c(C(=O)OCc2csc(CC(=O)Nc3ccccc3C)n2)c1C	13 µM [falling, partial curve, poor fit]	–
O=C1C(NS(=O)(=O)c2cccs2)=C(N2CCN(c3ccccc3)CC2)C(=O)c2ccccc21	1.3 µM [rising, full curve, poor fit]	–
c1cnc(SCCOc2ccc3c(c2)CCC3)nc1	0.326 µM [rising, partial curve, poor fit]	–

3 entries picked at random from the list so far, as already listed:
Compound	AC50 [1]	AC50 [2]
CCOC(=O)c1sc2nc(C)[nH]c(=O)c2c1C	35.5 µM [falling, single point]	–
CCN(CC)c1ccc2c(cc1=O)[C@@H](NC)CCc1cc(OC)c(OC)c(OC)c1-2	1.78 µM [rising, full curve, poor fit]	5.01 µM [falling, partial curve]
O=C(N/N=C/CCc1ccccc1)c1ccc(CN2c3cccc4cccc(c34)S2(=O)=O)cc1	14.6 µM [rising, partial curve, poor fit]	–

(more compounds)

Compound	AC50 [1]	AC50 [2]
CC(=O)Nc1ccc(S(=O)(=O)NCCC(=O)N2CCC(Cc3ccccc3)CC2)cc1	16.4 µM [falling, partial curve, poor fit]	–
COc1ccc(C2(O)CCN(C(=O)c3c(F)cccc3F)CC2)cc1	12.6 µM [rising, single point]	–
C=CCN1C(=O)C(Cc2ccc(OC)cc2)S/C1=N/N=C/c1ccco1 (stereo not given)	29.1 µM [rising, single point]	–
Cc1ccc(C)c(NC(=O)c2ccc3c(c2)N(Cc2ccc(F)cc2)C(=O)CS3=O)c1 (stereo not given)	32.6 µM [falling, single point]	23.1 µM [rising, partial curve, poor fit]
CC(/C=C1\SC(=S)N(CCC(=O)Nc2ccc(O)cc2)C1=O)=C\c1ccccc1	2.24 µM [rising, full curve, poor fit]	–
CCOC(=O)COc1ccccc1C(=O)c1cnn(-c2ccccc2)c1	7.94 µM [falling, partial curve]	–
C#CCOCCOCCOCCNc1nc(N2CCOCC2)nc(N2CCN(C(=O)[C@H]([C@@H](C)CC)n3cc([C@@H](N)CC(C)C)nn3)CC2)n1	5.01 µM [falling, partial curve]	–
C=C(C)Cn1c(N2CC(C)CC(C)C2)nc2c1c(=O)[nH]c(=O)n2C (stereo not given)	3.16 µM [rising, single point]	–
COc1cccc(C2=CC(c3ccc(OC)c(OC)c3OC)n3ncnc3N2)c1 (stereo not given)	2.82 µM [rising, single point]	–
O=C(CCCOc1ccc(Cl)cc1)N1CCOCC1	8.2 µM [rising, partial curve, poor fit]	–
NS(=O)(=O)c1ccc(-c2ccc(/C=C3\C(=O)Nc4cc(Cl)ccc43)o2)cc1	11.2 µM [rising, single point]	–
CN(C(=O)c1ccc(F)cc1)c1ccc(OCC(=O)Nc2ccccc2C(=O)O)cc1	7.31 µM [falling, partial curve, poor fit]	–
Cc1[nH]c2ccccc2c1C(c1ccccn1)N1CCC(C(N)=O)CC1 (stereo not given)	10 µM [falling, partial curve]	–
Cc1nn(-c2ccccc2)c(Cl)c1CN(C(=O)CCl)c1ccc(Cl)cc1	16.4 µM [falling, partial curve]	14.6 µM [rising, partial curve, poor fit]
COc1ccc(OCCC(=O)OCC(=O)Nc2cccc(S(=O)(=O)N3CCCCC3)c2)cc1	9.2 µM [falling, partial curve]	–
CC(C)(C)c1ccc(C(=O)Nc2nonc2-c2nc3ccccc3[nH]2)cc1	29.1 µM [rising, single point]	–
COc1ccc(C(=O)N/N=C/c2cccc3cccnc23)cc1	10 µM [falling, partial curve]	–
Cc1ccc(S(=O)(=O)NNC(=S)Nc2ccc(Cl)cc2)cc1	3.55 µM [rising, single point]	–

Reference: PubChem BioAssay AID493014 (National Center for Advancing Translational Sciences (NCATS), 2011)
